The target of the experiment is endogenous Nucleolin (NCL) (mouse (endogenous in N2a)) (UniProt P09405). Put plainly: co-IP; N2a cells transfected with MYCFAM172A and FLAGAGO2, endogenous NCL as bait; whole-cell extracts in 100 mM NaCl lysis buffer.

Protein sequences, listed by entry. Tags and fused reporters are not part of them.
UniProt P09405: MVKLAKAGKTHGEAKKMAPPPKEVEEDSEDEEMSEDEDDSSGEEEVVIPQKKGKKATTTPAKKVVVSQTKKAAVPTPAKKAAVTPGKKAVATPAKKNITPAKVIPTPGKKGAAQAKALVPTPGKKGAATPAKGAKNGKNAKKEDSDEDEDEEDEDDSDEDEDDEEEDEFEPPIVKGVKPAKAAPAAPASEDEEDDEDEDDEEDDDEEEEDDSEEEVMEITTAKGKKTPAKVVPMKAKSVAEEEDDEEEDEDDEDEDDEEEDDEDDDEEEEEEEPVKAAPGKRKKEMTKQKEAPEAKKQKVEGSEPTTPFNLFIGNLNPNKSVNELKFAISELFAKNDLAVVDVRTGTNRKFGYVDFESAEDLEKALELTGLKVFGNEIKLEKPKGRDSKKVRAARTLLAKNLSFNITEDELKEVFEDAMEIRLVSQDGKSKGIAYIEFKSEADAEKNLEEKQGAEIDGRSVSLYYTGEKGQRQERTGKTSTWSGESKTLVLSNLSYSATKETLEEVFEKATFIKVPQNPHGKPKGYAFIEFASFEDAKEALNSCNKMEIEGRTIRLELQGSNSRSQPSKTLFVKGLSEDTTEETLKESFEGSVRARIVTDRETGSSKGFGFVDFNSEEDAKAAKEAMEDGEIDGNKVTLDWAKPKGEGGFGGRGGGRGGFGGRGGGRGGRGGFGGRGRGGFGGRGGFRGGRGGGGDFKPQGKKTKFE
UniProt Q9UKV8: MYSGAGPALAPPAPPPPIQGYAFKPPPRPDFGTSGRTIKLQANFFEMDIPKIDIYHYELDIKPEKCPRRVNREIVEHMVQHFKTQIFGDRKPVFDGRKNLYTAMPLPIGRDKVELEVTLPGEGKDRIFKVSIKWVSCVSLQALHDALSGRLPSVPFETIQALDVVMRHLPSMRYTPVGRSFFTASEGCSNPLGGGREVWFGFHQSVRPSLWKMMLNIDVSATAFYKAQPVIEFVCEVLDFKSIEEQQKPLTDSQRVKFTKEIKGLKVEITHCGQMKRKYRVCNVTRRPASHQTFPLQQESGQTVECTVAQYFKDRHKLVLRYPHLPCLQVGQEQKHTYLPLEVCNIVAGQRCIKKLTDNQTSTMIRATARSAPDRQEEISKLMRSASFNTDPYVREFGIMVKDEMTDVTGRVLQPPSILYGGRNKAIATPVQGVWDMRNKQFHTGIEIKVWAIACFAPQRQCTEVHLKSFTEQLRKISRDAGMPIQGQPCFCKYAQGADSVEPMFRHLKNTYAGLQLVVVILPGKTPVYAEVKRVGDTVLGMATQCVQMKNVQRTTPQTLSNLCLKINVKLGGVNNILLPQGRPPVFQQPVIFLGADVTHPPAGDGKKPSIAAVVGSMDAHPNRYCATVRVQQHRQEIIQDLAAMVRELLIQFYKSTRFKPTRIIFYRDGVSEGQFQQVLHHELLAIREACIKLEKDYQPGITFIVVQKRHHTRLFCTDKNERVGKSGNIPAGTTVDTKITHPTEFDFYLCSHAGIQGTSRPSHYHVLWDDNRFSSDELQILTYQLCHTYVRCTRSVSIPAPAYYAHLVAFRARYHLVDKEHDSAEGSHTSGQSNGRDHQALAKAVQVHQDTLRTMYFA

These are yes or no findings as the source states them, for the method shown. Binding seen in cells or lysates may run through a third protein. Some entries that bind do so weakly or less than the wild type.

For the substance “full-length _(FLAG)AGO2 (from UniProt Q9UKV8 1-859)”, the binding entry is given as “binds”.
